Experimental data taken from patent US20090099195A1 (ASTRAZENECA AB, priority 2007, published 2009).
Some of these results come from one statement about several compounds together.

The compounds below were run against T1, P2X3 receptors (UniProt P56373) (assay: FLIPR antagonist assay, receptor or clone not stated (less preferred compounds)). Details: compounds also tested.
T1 sequence (P56373 1-397): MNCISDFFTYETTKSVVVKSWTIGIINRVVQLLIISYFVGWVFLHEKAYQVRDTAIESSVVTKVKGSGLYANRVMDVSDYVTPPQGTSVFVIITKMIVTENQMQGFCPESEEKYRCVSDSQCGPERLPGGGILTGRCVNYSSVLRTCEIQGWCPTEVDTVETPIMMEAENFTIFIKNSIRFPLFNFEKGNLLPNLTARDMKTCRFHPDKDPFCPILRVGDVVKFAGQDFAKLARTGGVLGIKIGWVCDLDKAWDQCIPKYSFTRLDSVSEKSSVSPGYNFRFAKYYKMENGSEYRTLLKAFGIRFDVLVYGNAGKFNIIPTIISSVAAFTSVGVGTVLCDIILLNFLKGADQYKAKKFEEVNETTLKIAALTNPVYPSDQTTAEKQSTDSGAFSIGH

IC50, > 3.3 µM:
CC(C)N1Cc2c(Nc3ccc4[nH]ccc4c3)nc(N3CCOCC3)nc2C1=O [4-(1H-indol-5-ylamino)-6-(1-methylethyl)-2-morpholin-4-yl-5,6-dihydro-7H-pyrrolo[3,4-d]pyrimidin-7-one]
CC(C)N1Cc2c(NCc3cnc4ccccc4c3)nc(N3CCN(C(=O)OC(C)(C)C)[C@@H](C)C3)nc2C1=O [tert-butyl (2S)-2-methyl-4-{6-(1-methylethyl)-7-oxo-4-[(quinolin-3-ylmethyl)amino]-6,7-dihydro-5H-pyrrolo[3,4-d]pyrimidin-2-yl}piperazine-1-carboxylate]
COc1ccc(C(Nc2nc(NCCN(C)C)nc3c2CN(C(C)C)C3=O)c2ccc(OC)cc2)cc1 [4-{[bis(4-methoxyphenyl)methyl]amino}-2-{[2-(dimethylamino)ethyl]amino}-6-(1-methylethyl)-5,6-dihydro-7H-pyrrolo[3,4-d]pyrimidin-7-one]
CC(C)N1Cc2c(NCC(c3ccccc3)c3ccccc3)nc(NCCN3CCCC3)nc2C1=O [4-[(2,2-diphenylethyl)amino]-6-(1-methylethyl)-2-[(2-pyrrolidin-1-ylethyl)amino]-5,6-dihydro-7H-pyrrolo[3,4-d]pyrimidin-7-one]
CC(=O)N1CCN(c2nc(NCc3cccc(-n4cccn4)c3)c3c(n2)C(=O)N(C(C)C)C3)CC1 [2-(4-acetylpiperazin-1-yl)-6-(1-methylethyl)-4-{[3-(1H-pyrazol-1-yl)benzyl]amino}-5,6-dihydro-7H-pyrrolo[3,4-d]pyrimidin-7-one]
CC(=O)N1CCN(c2nc(NC(C)c3ccc(N4CCOCC4)cc3)c3c(n2)C(=O)N(C(C)C)C3)CC1 (stereo not shown) [2-(4-acetylpiperazin-1-yl)-6-(1-methylethyl)-4-{[1-(4-morpholin-4-ylphenyl)ethyl]amino}-5,6-dihydro-7H-pyrrolo[3,4-d]pyrimidin-7-one]
CC(=O)N1CCN(c2nc(N[C@H]3c4ccccc4C[C@@H]3O)c3c(n2)C(=O)N(C(C)C)C3)CC1 [2-(4-acetylpiperazin-1-yl)-4-{[(1S,2S)-2-hydroxy-2,3-dihydro-1H-inden-1-yl]amino}-6-(1-methylethyl)-5,6-dihydro-7H-pyrrolo[3,4-d]pyrimidin-7-one]
CCOc1ccc([C@H](C)Nc2nc(N3CCN(C(C)=O)CC3)nc3c2CN(C(C)C)C3=O)cc1C [2-(4-acetylpiperazin-1-yl)-4-{[(1S)-1-(4-ethoxy-3-methylphenyl)ethyl]amino}-6-(1-methylethyl)-5,6-dihydro-7H-pyrrolo[3,4-d]pyrimidin-7-one]
CC(C)N1Cc2c(nc(N3CCOCC3)nc2N(C)C2CCN(C)C2)C1=O (stereo not shown) [6-(1-methylethyl)-4-[methyl(1-methylpyrrolidin-3-yl)amino]-2-morpholin-4-yl-5,6-dihydro-7H-pyrrolo[3,4-d]pyrimidin-7-one]
CCN(Cc1ccccc1)c1nc(NCCN(C)C)nc2c1CN(C(C)C)C2=O [4-[benzyl(ethyl)amino]-2-{[2-(dimethylamino)ethyl]amino}-6-(1-methylethyl)-5,6-dihydro-7H-pyrrolo[3,4-d]pyrimidin-7-one]
CC(C)N1Cc2c(NCc3cnc4ccccc4c3)nc(NCC3CCOCC3)nc2C1=O [6-(1-methylethyl)-4-[(quinolin-3-ylmethyl)amino]-2-[(tetrahydro-2H-pyran-4-ylmethyl)amino]-5,6-dihydro-7H-pyrrolo[3,4-d]pyrimidin-7-one]
CC(C)Cc1ccc(C(Nc2nc(NCCN(C)C)nc3c2CN(C(C)C)C3=O)C(C)C)cc1 (stereo not shown) [2-{[2-(dimethylamino)ethyl]amino}-6-(1-methylethyl)-4-({2-methyl-1-[4-(2-methylpropyl)phenyl]propyl}amino)-5,6-dihydro-7H-pyrrolo[3,4-d]pyrimidin-7-one]
CC(=O)N1CCN(c2nc3c(c(N4CCN(C(C)=O)CC4)n2)CN(C(C)C)C3=O)CC1 [2,4-bis(4-acetylpiperazin-1-yl)-6-(1-methylethyl)-5,6-dihydro-7H-pyrrolo[3,4-d]pyrimidin-7-one]
CC(=O)N1CCN(c2nc(N[C@@H]3c4ccccc4C[C@H]3O)c3c(n2)C(=O)N(C(C)C)C3)CC1 [2-(4-acetylpiperazin-1-yl)-4-{[(1R,2R)-2-hydroxy-2,3-dihydro-1H-inden-1-yl]amino}-6-(1-methylethyl)-5,6-dihydro-7H-pyrrolo[3,4-d]pyrimidin-7-one]
CC(C)N1Cc2c(NCc3cnc4ccccc4c3)nc(N(C)CCN(C)C)nc2C1=O [2-{[2-(dimethylamino)ethyl] (methyl)amino}-6-(1-methylethyl)-4-[(quinolin-3-ylmethyl)amino]-5,6-dihydro-7H-pyrrolo[3,4-d]pyrimidin-7-one]
CC(C)N1Cc2c(NCc3cnc4ccccc4c3)nc(N(C)CC3CCOCC3)nc2C1=O [6-(1-methylethyl)-2-[methyl(tetrahydro-2H-pyran-4-ylmethyl)amino]-4-[(quinolin-3-ylmethyl)amino]-5,6-dihydro-7H-pyrrolo[3,4-d]pyrimidin-7-one]
Cc1cccc(CCNc2nc(NCCN(C)C)nc3c2CN(C(C)C)C3=O)c1 [2-{[2-(dimethylamino)ethyl]amino}-6-(1-methylethyl)-4-{[2-(3-methylphenyl)ethyl]amino}-5,6-dihydro-7H-pyrrolo[3,4-d]pyrimidin-7-one]
CC(=O)N1CCN(c2nc3c(c(N4CCCCC4Cc4ccncc4)n2)CN(C(C)C)C3=O)CC1 (stereo not shown) [2-(4-acetylpiperazin-1-yl)-6-(1-methylethyl)-4-[2-(pyridin-4-ylmethyl)piperidin-1-yl]-5,6-dihydro-7H-pyrrolo[3,4-d]pyrimidin-7-one]
CC(C)N1Cc2c(Nc3ccc(-n4cccn4)cc3)nc(N3CCOCC3)nc2C1=O [6-(1-methylethyl)-2-morpholin-4-yl-4-{[4-(1H-pyrazol-1-yl)phenyl]amino}-5,6-dihydro-7H-pyrrolo[3,4-d]pyrimidin-7-one]
CC(=O)N1CCN(c2nc3c(c(N(C)C(CN(C)C)c4ccccc4)n2)CN(C(C)C)C3=O)CC1 (stereo not shown) [2-(4-acetylpiperazin-1-yl)-4-{[2-(dimethylamino)-1-phenylethyl] (methyl)amino}-6-(1-methylethyl)-5,6-dihydro-7H-pyrrolo[3,4-d]pyrimidin-7-one]
COc1ccc(NC(C)=O)cc1Nc1nc(N2CCOCC2)nc2c1CN(C(C)C)C2=O [N-(4-methoxy-3-{[6-(1-methylethyl)-2-morpholin-4-yl-7-oxo-6,7-dihydro-5H-pyrrolo[3,4-d]pyrimidin-4-yl]amino}phenyl)acetamide]
CC(C)N1Cc2c(NCc3cnc4ccccc4c3)nc(N3CCN(CCO)CC3)nc2C1=O [2-[4-(2-hydroxyethyl)piperazin-1-yl]-6-(1-methylethyl)-4-[(quinolin-3-ylmethyl)amino]-5,6-dihydro-7H-pyrrolo[3,4-d]pyrimidin-7-one]
CC(=O)N1CCN(c2nc(NC3CCc4ccc(F)cc43)c3c(n2)C(=O)N(C(C)C)C3)CC1 (stereo not shown) [2-(4-acetylpiperazin-1-yl)-4-[(6-fluoro-2,3-dihydro-1H-inden-1-yl)amino]-6-(1-methylethyl)-5,6-dihydro-7H-pyrrolo[3,4-d]pyrimidin-7-one]
CC(C)N1Cc2c(Nc3cccc(-n4cccc4)c3)nc(N3CCOCC3)nc2C1=O [6-(1-methylethyl)-2-morpholin-4-yl-4-{[3-(1H-pyrrol-1-yl)phenyl]amino}-5,6-dihydro-7H-pyrrolo[3,4-d]pyrimidin-7-one]
CC(=O)N(C)C1CCN(c2nc(NCc3nc(-c4ccccc4)no3)c3c(n2)C(=O)N(C(C)C)C3)C1 (stereo not shown) [N-methyl-N-{1-[6-(1-methylethyl)-7-oxo-4-{[(3-phenyl-1,2,4-oxadiazol-5-yl)methyl]amino}-6,7-dihydro-5H-pyrrolo[3,4-d]pyrimidin-2-yl]pyrrolidin-3-yl}acetamide]
CC(=O)N1CCN(c2nc3c(c(N4CCCC4CC(C)C)n2)CN(C(C)C)C3=O)CC1 (stereo not shown) [2-(4-acetylpiperazin-1-yl)-6-(1-methylethyl)-4-[2-(2-methylpropyl)pyrrolidin-1-yl]-5,6-dihydro-7H-pyrrolo[3,4-d]pyrimidin-7-one]
CC(C)N1Cc2c(NCc3cnc4ccccc4c3)nc(N3CCCCC3CN(C)C)nc2C1=O (stereo not shown) [2-{2-[(dimethylamino)methyl]piperidin-1-yl}-6-(1-methylethyl)-4-[(quinolin-3-ylmethyl)amino]-5,6-dihydro-7H-pyrrolo[3,4-d]pyrimidin-7-one]
CC(C)N1Cc2c(NC(C)(C)Cc3ccc(F)cc3)nc(N3CCN4CCC[C@H]4C3)nc2C1=O [4-{[2-(4-fluorophenyl)-1,1-dimethylethyl]amino}-2-[(8aS)-hexahydropyrrolo[1,2-a]pyrazin-2(1H)-yl]-6-(1-methylethyl)-5,6-dihydro-7H-pyrrolo[3,4-d]pyrimidin-7-one]
CC(=O)N1CCN(c2nc(NCc3ccnc4ccccc34)c3c(n2)C(=O)N(C(C)C)C3)CC1 [2-(4-acetylpiperazin-1-yl)-6-(1-methylethyl)-4-[(quinolin-4-ylmethyl)amino]-5,6-dihydro-7H-pyrrolo[3,4-d]pyrimidin-7-one]
CC(=O)N1CCN(c2nc3c(c(N4CCCC4c4cccnc4)n2)CN(C(C)C)C3=O)CC1 (stereo not shown) [2-(4-acetylpiperazin-1-yl)-6-(1-methylethyl)-4-(2-pyridin-3-ylpyrrolidin-1-yl)-5,6-dihydro-7H-pyrrolo[3,4-d]pyrimidin-7-one]
O=C1c2nc(N3CCOCC3)nc(Nc3ccc(Cl)cc3)c2CN1C1CCC1 [4-[(4-chlorophenyl)amino]-6-cyclobutyl-2-morpholin-4-yl-5,6-dihydro-7H-pyrrolo[3,4-d]pyrimidin-7-one]
